PMC4074151
No constants are given. Whether binding was seen depends on the method and setting. In cells and extracts the contact can be indirect. Some binding calls cover weakened binding; strength is not graded here.

Amino acid sequences for entries named in this document (tags omitted). A change or cut given only in a name is not applied to a line headed by its entry. Chains listed by the source or under a name are the forms on record and can include a tag or linker. Residues count along the entry.
UniProt P55854, residues 1-92: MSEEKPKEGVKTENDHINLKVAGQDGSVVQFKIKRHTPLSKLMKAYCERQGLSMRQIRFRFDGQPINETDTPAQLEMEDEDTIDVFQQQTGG
UniProt P63165, residues 1-97: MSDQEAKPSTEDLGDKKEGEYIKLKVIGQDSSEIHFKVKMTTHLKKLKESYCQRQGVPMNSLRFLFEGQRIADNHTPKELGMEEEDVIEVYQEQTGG
UniProt P00441: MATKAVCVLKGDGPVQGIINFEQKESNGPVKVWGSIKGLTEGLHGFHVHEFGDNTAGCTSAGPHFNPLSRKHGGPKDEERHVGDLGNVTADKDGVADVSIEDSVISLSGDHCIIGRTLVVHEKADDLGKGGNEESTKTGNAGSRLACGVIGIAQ
FLAG-tagged G93R-SOD1 (superoxide dismutase 1, familial ALS-linked mutant G93R) (P00441, form named): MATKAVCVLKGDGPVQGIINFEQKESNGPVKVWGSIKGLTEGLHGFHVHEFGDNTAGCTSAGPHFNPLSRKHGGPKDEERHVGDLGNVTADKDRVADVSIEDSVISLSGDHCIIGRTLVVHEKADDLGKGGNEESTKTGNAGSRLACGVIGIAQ

Tests used:
[1] = biological target: HA-tagged SUMO3 (small ubiquitin-like modifier 3) (human) (UniProt P55854); experiment: co-IP; NSC34 cells cotransfected with FLAG-tagged SOD1 (G93R or wild type), HA-tagged SUMO1/3 or vector, and myc-tagged Ubc9; lysates in RIPA buffer with 10 mM N-ethylmaleimide; immunoprecipitated with anti-HA antibody (M180-3, MBL); immunoblot with HRP-conjugated anti-FLAG
[2] = biological target: HA-tagged SUMO1 (small ubiquitin-like modifier 1) (UniProt P63165); experiment: as above

binding [1]	binding [2]	Substance
binds		FLAG-tagged G93R-SOD1 (superoxide dismutase 1, familial ALS-linked mutant G93R) (from UniProt P00441 1-154)
no binding	no binding	FLAG-tagged wild-type SOD1 (superoxide dismutase 1) (from UniProt P00441 1-154)
